PubChem BioAssay AID743454 | Peter MacCallum Cancer Centre | 2014
Assay: 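Search for knock-downs that restore vorinostat killing in resistant colon cancer cells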 (primary screen). Cell system: human HCT116-VR colon cancer cells, selected for vorinostat resistance. Knock-down reagent: siRNA pool against human genes, 40 nM siRNA pool. Time to read-out: vorinostat for 24 h, read-out about 72 h after transfection. Challenge: vorinostat at 2.5 µM final. Measurement: 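Cell viability by CellTiter-Fluor and caspase 3/7 activity by luminescence, each scaled to mock wells per plate, duplicates averaged, then robust z-scored over all plates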. Reading the numbers: viability robust z-score: higher = more viable cells than screen typical; caspase robust z-score: higher = more caspase 3/7 activity than screen typical. Rule for the call: 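a knock-down is a hit when classed RV1 or RV2 for lowered viability, or CA1 or CA2 for caspase activation; those lethal without drug were dropped; hits were retested singly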.
The whole screen tested about 18,000 reagents; this is a part drawn at random. 450 of them (2.5%) count as active. 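Single biological run; no consistent viability z cut-off exists, so the class columns, not z-scores, define the calls.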 Entries without a mark were called inactive. Reagent sequences are not shown.

INO80E scored viability hit class no change; caspase hit class no change; viability robust z-score -0.41; caspase robust z-score -0.52. DZIP1L gave viability hit class no change; caspase hit class no change; viability robust z-score 1.06; caspase robust z-score -0.9. Knock-down of CACNA1S came out at: viability hit class no change; caspase hit class no change; viability robust z-score 0.04; caspase robust z-score 4.29. ADAD2 scored viability hit class no change; caspase hit class no change; viability robust z-score -0.11; caspase robust z-score -0.56. FAF2 scored viability hit class no change; caspase hit class no change; viability robust z-score -0.43; caspase robust z-score -0.86. Silencing of MYDGF resulted in: viability hit class no change; caspase hit class no change; viability robust z-score -0.16; caspase robust z-score 3.09.

ZNF789 scored viability hit class no change; caspase hit class no change; viability robust z-score -0.55; caspase robust z-score 0.41. SHROOM4 scored viability hit class no change; caspase hit class no change; viability robust z-score -0.06; caspase robust z-score 2.38. Depletion of LRRC59 resulted in: viability hit class no change; caspase hit class no change; viability robust z-score -1.06; caspase robust z-score 2.15. Depletion of DIO2 came out at: viability hit class no change; caspase hit class no change; viability robust z-score -0.84; caspase robust z-score -1.26. After knock-down of PSME1 the results were viability hit class no change; caspase hit class no change; viability robust z-score -0.54; caspase robust z-score -0.38. Depletion of BTF3 came out at: viability hit class no change; caspase hit class no change; viability robust z-score -0.78; caspase robust z-score 1.57.

Against PRAMEF9, the values are viability hit class no change; caspase hit class no change; viability robust z-score 0.97; caspase robust z-score 2.28. For SACK1B, the values are viability hit class no change; caspase hit class no change; viability robust z-score 1.27; caspase robust z-score -0.33.

Laid out differently: 2 of the entries above.
INO80E
- viability hit class: no change
- caspase hit class: no change
- viability robust z-score: -0.41
- caspase robust z-score: -0.52

DZIP1L
- viability hit class: no change
- caspase hit class: no change
- viability robust z-score: 1.06
- caspase robust z-score: -0.9
